Earlier results in patent publication US20080312277A1, “Gpr41 and Modulators Thereof for the Treatment of Insulin-Related Disorders” (priority 2004, published 2008).
For at least one compound, name, drawing or mass did not settle the structure.

Test system: HIV-positive patients
Conditions: treatment for three months; cited from earlier work

## CN(CCOc1ccc(CC2SC(=O)NC2=O)cc1)c1ccccn1 (centres unmarked) [rosiglitazone]
  improvement on a standard test to measure insulin sensitivity: ~20%
  increase in amount of fat on face, arms and legs: 24%
